# Data taken from patent publication US20200392244A1.
# These are yes or no findings as the source states them, for the method shown. Some entries that bind do so weakly or less than the wild type.
# B1: 2.10 (VHH)
# VHH: EVQLVESGGGVVQPGRSLRLSCAASGFTFSGYGMHWVRQAPGKGLEWVAYISYDGSNRYYADSVKGRFTISRDNSKKTLSLQMNSLRAEDTAVYYCAKDPAWGLRLGESSSYDFDIWGQGTMVTVSS
# B2: single VH domain antibody 4.1 (VHH)
# VHH: QVQLVESGGGVVQPGRSLRLSCVASGFPFISYGMHWVRQAPGKGREWVAVISYDGSNRYYADSVKGRFTISRDNSKNTLYLQMNSLRPEDTAVYYCAKERIFGVLTPDDFDIWGQGTTVTVSS
# B3: single VH domain antibody 5.1 (VHH)
# VHH: QVQLVESGGGVVQPGRSLRLSCAASGFTFNNYGMHWVRQAPGKGLEWVAIISYDGNTKYYTDSVKGRFTISRDNSKNTLYLQMNSLRVEDTAVYYCAKGLWPSDVWGQGTTVTVSS
# B4: single VH domain antibody 6.1 (VHH)
# VHH: QVQLQESGPGLVKPSQTLSLTCTVSGGSISNSGYYWSWVRQHPGKDLEWIGFIYYNGSIHYNPSLKSRVIISVDTSKNQFSLKMNSVTAADTAVYYCARDGDDYGDYLRGQGTLVTVSS
# Legend:
# [1] = molecular target: cynomolgus PSMA on CHO cells (cynomolgus); experiment: FMAT Mirrorball direct cell binding of purified His-tagged VH (anti-His + Alexa Fluor-488 anti-mouse) on CHO cells expressing cynomolgus PSMA [panel cynoPSMA-CHO binding]
# [2] = molecular target: cynomolgus PSMA on CHO cells (cynomolgus); experiment: FMAT screen, Cyno PSMA CHO cells
Binder,binding [1],binding [2]
B1,binds,
B2,,binds
B3,,binds
B4,,binds
